PubChem BioAssay AID652243 | Drosophila RNAi Screening Center | 2013

Screen: 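Knock-downs that decrease or increase androgen receptor reporter signal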 (primary screen)
Cell system: Drosophila S2R+ cells
Reagent: long dsRNA against Drosophila genes
Timing: 72 h (48 h, then 24 h hormone)
Challenge: synthetic androgen R1881 at 10 nM for 24 h
Read-out: 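Firefly light from an androgen-responsive reporter and Renilla control light per well, raw and unnormalised, for each of two replicates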
Reading the numbers: firefly reporter light: higher = more light from androgen-responsive reporter; Renilla control light: higher = more constitutive control signal (cell number, transfection)
Call rule: 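Across duplicate plates, a knock-down whose log firefly/Renilla ratio shifted a set fold down or up from the GFP/LacZ control mean was a hit; the downward cut appears as both 1.5 and 3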
Meaning of the calls: active = hit: reporter lowered or raised; inactive = no hit
The deposit covers about 24,000 reagents; below is an unselected part of those with a known target gene and a result. Over the whole deposit, 246 (1%) got an active call. 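Plates not normalised; calls are printed but the firefly/Renilla ratio behind them is not deposited; fold cut for lowering reported inconsistently.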 The raw values are shown without normalisation. A plus sign joins genes that one reagent is predicted to hit. Not stated in the record: the amount of reagent.

| gene knocked down | dsRNA | firefly reporter light, replicate 1 | firefly reporter light, replicate 2 | Renilla control light, replicate 1 | Renilla control light, replicate 2 | call |
| --- | --- | --- | --- | --- | --- | --- |
| Dredd | DRSC18461 | 51066 | 20585 | 4.34e5 | 2.93e5 | inactive |
| gammaTub23C | DRSC00820 | 9.14e5 | 8.33e5 | 2.25e6 | 1.59e6 | inactive |
| gammaTub23C | DRSC27651 | 6.46e5 | 5.12e5 | 8.38e5 | 6.59e5 | inactive |
| gammaTub23C | DRSC38953 | 6.00e5 | 5.87e5 | 1.11e6 | 1.20e6 | inactive |
| CG31643 | DRSC00906 | 2.63e5 | 1.79e5 | 6.45e5 | 4.86e5 | inactive |
| Or19b + Or19a | DRSC22604 | 6.78e5 | 7.32e5 | 1.14e6 | 1.05e6 | inactive |
| CG33270 | DRSC10584 | 8.85e5 | 8.65e5 | 1.61e6 | 1.42e6 | inactive |
| gw | DRSC17135 | 1.15e5 | 84831 | 4.87e5 | 2.95e5 | active |
| gw | DRSC17160 | 44724 | 73817 | 2.30e6 | 2.24e6 | active |
| gw | DRSC23497 | 28029 | 15566 | 6645 | 14785 | inactive |
| bocks | DRSC16489 | 47355 | 39307 | 3.36e5 | 3.60e5 | inactive |
| Dys | DRSC13364 | 8.90e5 | 8.32e5 | 1.47e6 | 1.33e6 | inactive |
| Dys | DRSC15260 | 1.80e5 | 2.22e5 | 3.01e6 | 3.13e6 | inactive |
| Dys | DRSC16218 | 1.67e5 | 1.89e5 | 2.65e6 | 3.21e6 | inactive |
| Dys | DRSC16219 | 2.40e5 | 2.78e5 | 3.12e6 | 3.49e6 | inactive |
| Dys | DRSC16220 | 1.78e5 | 1.06e5 | 2.84e6 | 2.00e6 | inactive |
| Dys | DRSC16935 | 2.22e5 | 2.53e5 | 2.46e6 | 2.97e6 | inactive |
| Dys | DRSC25148 | 6.25e5 | 6.95e5 | 7.47e5 | 7.93e5 | inactive |
| tou | DRSC22710 | 9.89e5 | 7.07e5 | 1.10e6 | 7.08e5 | inactive |
| tou | DRSC27228 | 2.19e5 | 2.59e5 | 3.91e5 | 4.23e5 | inactive |
| CG6495 | DRSC01993 | 6.46e5 | 2.91e5 | 1.42e6 | 1.12e6 | inactive |
| CG6495 | DRSC29128 | 8.35e5 | 1.31e6 | 1.18e6 | 1.47e6 | inactive |
| slbo | DRSC04716 | 7.62e5 | 7.04e5 | 1.68e6 | 1.32e6 | inactive |
| slbo | DRSC27813 | 2.96e5 | 2.70e5 | 5.92e5 | 7.48e5 | inactive |

Reagents listed above marked active (2):
| gene knocked down | dsRNA | firefly reporter light, replicate 1 | firefly reporter light, replicate 2 | Renilla control light, replicate 1 | Renilla control light, replicate 2 | call |
| --- | --- | --- | --- | --- | --- | --- |
| gw | DRSC17135 | 1.15e5 | 84831 | 4.87e5 | 2.95e5 | active |
| gw | DRSC17160 | 44724 | 73817 | 2.30e6 | 2.24e6 | active |
